Results as given in the supplement of paper PMC8426693.
Some of the results follow.

Columns and labels:
Experiment in all cases: NMR binding call after quantification (hit when 2 of 3 NMR criteria are met) (binary (1 = binding, 0 = not binding)); higher = binding
Details in all cases: RNA concentration 10 µM; fragment concentration 200 µM; 293 K
[1] = tested on: SARS-CoV-2 5_SL7 RNA
[2] = tested on: SARS-CoV-2 5_SL8 RNA
[3] = tested on: SARS-CoV-2 attenuator hairpin (att HP) RNA
[4] = tested on: SARS-CoV-2 frameshift pseudoknot (PK) RNA

Measured: NMR binding call

Cc1cc(C(=O)NC(C)C)on1
0: all assays above

COc1ccc(N2CC(C(N)=O)CC2=O)cc1 (stereo not given)
0: all assays above

O=C(c1ccc2c(c1)OCO2)N1CCCCCC1
0: all assays above

c1csc(-c2nnc[nH]2)n1
0: all assays above

O=C(COc1ccccc1)N1CCCC1
0: all assays above

O=C(CN1CCCC1)Nc1ccc(F)cc1
0: all assays above

Clc1cccc(CN2CCOCC2)c1
0: all assays above

CCn1cc(C(=O)NCc2ccc(F)cc2)cn1
0: all assays above

NC(=O)c1ccc(NC(=O)C2CCCC2)cc1
0: all assays above

O=C(OCc1ccc(Cl)cc1)c1cccnc1
0: all assays above

CCN(CC)S(=O)(=O)c1ccc(C)cc1
0: all assays above

Cc1cccc(C(=O)N2CCC(C(N)=O)CC2)c1
0: all assays above

CCc1ccc(C(=O)NCc2cnn(C)c2)s1
0: all assays above

NC(=S)Nc1ccccc1OC(F)(F)F
0: all assays above

Not a retest: 2 of the compounds above.
Cc1cccc(C(=O)N2CCC(C(N)=O)CC2)c1
0: all assays above

CCc1ccc(C(=O)NCc2cnn(C)c2)s1
0: all assays above

The results go on.

CCNC(=O)CN1CC(C)OCC1C (stereo not given)
0: all assays above
